Data source: PubChem BioAssay AID1259308 (NCATS, 2017)
This is an unselected part of about 59,000 deposited reagents. Of all reagents, about 1,510 (2.6%) were called active. 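Calls use total luciferase alone and ignore viability, so some active siRNAs may act by altering cell number.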 A number with no mark means an inactive call. The numbers tell different reagents against one gene apart. Further read-outs or replicates are left out here. Reagent sequences are not shown.

- Test: 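Candidate targets for better recombinant protein yield in mammalian cells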 (primary screen)
- System: human HEK293 embryonic kidney cells stably expressing firefly luciferase (HEK-CMV-Luc2-Hygro)
- Knock-down reagent: single siRNA against human genes, 0.8 pmol siRNA per well
- Timing: 72 h
- Detection: 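Reporter luminescence and viable-cell signal on separate replicate plates, given as percent of non-targeting control and median/MAD z-scores, plus per-cell luciferase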
- Scale: total luciferase, z-score and total luciferase, % of control: higher = more reporter protein produced
- Active means: 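Active when the median/MAD z-score for overall luciferase is greater than 3; a gene was taken forward for validation with new siRNAs if at least two of its three siRNAs passed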
- Calls: active = raised luciferase; inactive = no rise

What did the screen give for MUSTN1 #1?
total luciferase, z-score: 1.16; total luciferase, % of control: 105

With MUSTN1 #2, how do the results read?
total luciferase, z-score: -2.07; total luciferase, % of control: 40.7

Which result is listed for MUSTN1 #3?
total luciferase, z-score: -0.146; total luciferase, % of control: 79

What did the screen give for HTR7 #1?
total luciferase, z-score: 0.774; total luciferase, % of control: 97.3

For HTR7 #2, what was measured?
total luciferase, z-score: 1.44; total luciferase, % of control: 111

For HTR7 #3, what was measured?
total luciferase, z-score: -0.287; total luciferase, % of control: 76.2

With ZNF180 #1, how do the results read?
total luciferase, z-score: 0.678; total luciferase, % of control: 95.4

What is on record for ZNF180 #2?
total luciferase, z-score: -0.83; total luciferase, % of control: 65.4

What did the screen give for ZNF180 #3?
total luciferase, z-score: -0.207; total luciferase, % of control: 77.8

With UNG #1, what does the deposit list?
total luciferase, z-score: -1.2; total luciferase, % of control: 58

With UNG #2, what does the deposit list?
total luciferase, z-score: -1.4; total luciferase, % of control: 54

What did the screen give for UNG #3?
total luciferase, z-score: -0.153; total luciferase, % of control: 78.8

2 entries from above, arranged by “total luciferase, z-score”, highest first.
ZNF180 #3 — total luciferase, z-score: -0.207; total luciferase, % of control: 77.8
ZNF180 #2 — total luciferase, z-score: -0.83; total luciferase, % of control: 65.4

The results go on:
For OR2C3 #1, what was measured?
total luciferase, z-score: -1.39; total luciferase, % of control: 54.2

What did the screen give for OR2C3 #2?
total luciferase, z-score: -1.12; total luciferase, % of control: 59.5

Which result is listed for OR2C3 #3?
total luciferase, z-score: 0.0869; total luciferase, % of control: 83.6

What is on record for SEPTIN14 #1?
total luciferase, z-score: 0.882; total luciferase, % of control: 99.4

What is on record for SEPTIN14 #2?
total luciferase, z-score: 0.651; total luciferase, % of control: 94.8

Which result is listed for SEPTIN14 #3?
total luciferase, z-score: 0.5; total luciferase, % of control: 91.8

How did the screen score RUNDC3B #1?
total luciferase, z-score: 0.208; total luciferase, % of control: 86

With RUNDC3B #2, what was measured?
total luciferase, z-score: 2.57; total luciferase, % of control: 133

For RUNDC3B #3, what does the deposit list?
total luciferase, z-score: 0.549; total luciferase, % of control: 92.8
